Measurements: US9321776B2, “Isochromene derivatives as phoshoinositide 3-kinases inhibitors” (CHIESI FARMACEUTICI S.p.A., priority 2013, dated 2016)

Protein sequences, listed by entry. Tags and fused reporters are not part of them. Lines headed by an entry give the natural chain unless they say otherwise; changes in a name come on top.
UniProt P42338, whole entry: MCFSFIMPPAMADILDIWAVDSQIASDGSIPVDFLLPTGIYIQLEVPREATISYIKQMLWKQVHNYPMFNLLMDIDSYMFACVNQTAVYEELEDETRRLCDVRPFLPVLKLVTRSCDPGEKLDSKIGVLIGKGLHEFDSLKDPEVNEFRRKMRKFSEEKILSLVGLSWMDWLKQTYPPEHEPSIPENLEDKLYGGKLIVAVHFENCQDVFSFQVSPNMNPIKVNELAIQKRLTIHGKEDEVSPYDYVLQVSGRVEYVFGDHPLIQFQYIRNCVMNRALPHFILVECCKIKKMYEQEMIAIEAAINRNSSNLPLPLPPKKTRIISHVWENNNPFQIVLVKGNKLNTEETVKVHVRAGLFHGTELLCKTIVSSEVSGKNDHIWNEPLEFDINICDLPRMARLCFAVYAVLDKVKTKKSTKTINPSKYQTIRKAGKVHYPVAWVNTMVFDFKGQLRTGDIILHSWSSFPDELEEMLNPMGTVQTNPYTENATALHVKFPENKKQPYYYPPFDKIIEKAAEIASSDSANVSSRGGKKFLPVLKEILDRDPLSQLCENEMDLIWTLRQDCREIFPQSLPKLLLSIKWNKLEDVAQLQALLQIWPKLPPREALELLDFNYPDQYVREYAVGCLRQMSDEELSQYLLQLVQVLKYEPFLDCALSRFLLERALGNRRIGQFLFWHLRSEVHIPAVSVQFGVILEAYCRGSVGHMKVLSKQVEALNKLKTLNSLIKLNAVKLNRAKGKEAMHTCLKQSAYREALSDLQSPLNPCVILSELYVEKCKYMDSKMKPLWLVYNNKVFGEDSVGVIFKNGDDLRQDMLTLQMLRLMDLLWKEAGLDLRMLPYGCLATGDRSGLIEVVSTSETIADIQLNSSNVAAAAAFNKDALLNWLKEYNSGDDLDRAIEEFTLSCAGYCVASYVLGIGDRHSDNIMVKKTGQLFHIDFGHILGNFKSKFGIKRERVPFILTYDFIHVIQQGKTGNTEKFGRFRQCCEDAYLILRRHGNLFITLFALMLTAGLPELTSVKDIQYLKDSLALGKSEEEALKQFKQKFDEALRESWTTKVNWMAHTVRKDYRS
UniProt O00329, whole entry: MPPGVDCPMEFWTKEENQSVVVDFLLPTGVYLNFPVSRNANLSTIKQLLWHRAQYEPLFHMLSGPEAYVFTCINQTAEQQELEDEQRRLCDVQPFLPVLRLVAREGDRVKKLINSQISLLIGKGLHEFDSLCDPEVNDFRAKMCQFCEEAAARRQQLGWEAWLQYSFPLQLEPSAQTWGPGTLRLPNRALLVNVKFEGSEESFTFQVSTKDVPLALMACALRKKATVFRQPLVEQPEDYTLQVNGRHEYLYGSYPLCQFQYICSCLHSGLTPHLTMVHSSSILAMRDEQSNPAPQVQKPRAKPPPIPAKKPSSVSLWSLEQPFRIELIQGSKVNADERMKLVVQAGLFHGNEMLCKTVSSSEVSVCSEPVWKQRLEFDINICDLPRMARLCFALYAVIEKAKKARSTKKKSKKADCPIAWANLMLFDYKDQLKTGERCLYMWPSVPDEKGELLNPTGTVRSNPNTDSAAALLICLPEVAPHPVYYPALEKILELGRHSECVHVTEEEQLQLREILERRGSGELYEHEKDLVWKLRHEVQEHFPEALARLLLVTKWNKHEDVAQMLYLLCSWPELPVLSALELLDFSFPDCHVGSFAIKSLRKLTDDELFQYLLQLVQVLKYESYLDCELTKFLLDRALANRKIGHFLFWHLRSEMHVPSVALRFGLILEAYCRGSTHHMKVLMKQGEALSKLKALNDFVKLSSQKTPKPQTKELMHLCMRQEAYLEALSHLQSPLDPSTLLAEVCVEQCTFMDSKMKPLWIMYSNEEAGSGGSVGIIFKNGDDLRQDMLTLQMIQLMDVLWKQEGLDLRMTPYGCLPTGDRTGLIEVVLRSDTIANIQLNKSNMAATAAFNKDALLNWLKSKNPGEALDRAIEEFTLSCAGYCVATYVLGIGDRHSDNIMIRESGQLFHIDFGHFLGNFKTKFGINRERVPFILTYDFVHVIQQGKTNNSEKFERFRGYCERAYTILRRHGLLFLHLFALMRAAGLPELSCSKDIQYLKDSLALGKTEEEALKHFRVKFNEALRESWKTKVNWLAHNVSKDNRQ
UniProt P42336, whole entry: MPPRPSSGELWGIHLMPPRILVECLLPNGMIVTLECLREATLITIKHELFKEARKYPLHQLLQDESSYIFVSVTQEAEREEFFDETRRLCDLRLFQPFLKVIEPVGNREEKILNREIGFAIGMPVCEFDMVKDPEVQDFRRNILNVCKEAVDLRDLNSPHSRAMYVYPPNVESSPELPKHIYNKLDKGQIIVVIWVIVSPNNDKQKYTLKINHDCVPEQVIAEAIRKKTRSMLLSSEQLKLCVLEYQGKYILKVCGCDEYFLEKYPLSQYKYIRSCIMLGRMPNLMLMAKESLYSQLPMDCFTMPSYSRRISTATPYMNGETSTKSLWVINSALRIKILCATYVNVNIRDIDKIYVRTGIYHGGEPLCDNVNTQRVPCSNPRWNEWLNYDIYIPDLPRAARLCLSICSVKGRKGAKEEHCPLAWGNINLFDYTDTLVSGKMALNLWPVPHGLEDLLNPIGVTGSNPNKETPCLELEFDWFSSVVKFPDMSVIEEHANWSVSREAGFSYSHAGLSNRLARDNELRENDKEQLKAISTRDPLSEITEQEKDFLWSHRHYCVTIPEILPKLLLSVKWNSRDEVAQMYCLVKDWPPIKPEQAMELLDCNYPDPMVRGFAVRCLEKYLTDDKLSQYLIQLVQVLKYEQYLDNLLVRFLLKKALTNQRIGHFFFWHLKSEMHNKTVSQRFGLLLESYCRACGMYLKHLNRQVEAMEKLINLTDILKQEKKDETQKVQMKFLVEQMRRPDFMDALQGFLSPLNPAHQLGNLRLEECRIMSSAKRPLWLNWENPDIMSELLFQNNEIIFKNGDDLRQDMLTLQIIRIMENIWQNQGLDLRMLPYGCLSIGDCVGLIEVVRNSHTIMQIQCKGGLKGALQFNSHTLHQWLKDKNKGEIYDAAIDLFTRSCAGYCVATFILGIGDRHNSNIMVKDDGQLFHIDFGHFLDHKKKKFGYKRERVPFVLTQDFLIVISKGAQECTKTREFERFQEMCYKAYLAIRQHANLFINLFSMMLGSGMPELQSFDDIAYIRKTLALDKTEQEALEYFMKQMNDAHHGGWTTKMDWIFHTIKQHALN
UniProt P48736, whole entry: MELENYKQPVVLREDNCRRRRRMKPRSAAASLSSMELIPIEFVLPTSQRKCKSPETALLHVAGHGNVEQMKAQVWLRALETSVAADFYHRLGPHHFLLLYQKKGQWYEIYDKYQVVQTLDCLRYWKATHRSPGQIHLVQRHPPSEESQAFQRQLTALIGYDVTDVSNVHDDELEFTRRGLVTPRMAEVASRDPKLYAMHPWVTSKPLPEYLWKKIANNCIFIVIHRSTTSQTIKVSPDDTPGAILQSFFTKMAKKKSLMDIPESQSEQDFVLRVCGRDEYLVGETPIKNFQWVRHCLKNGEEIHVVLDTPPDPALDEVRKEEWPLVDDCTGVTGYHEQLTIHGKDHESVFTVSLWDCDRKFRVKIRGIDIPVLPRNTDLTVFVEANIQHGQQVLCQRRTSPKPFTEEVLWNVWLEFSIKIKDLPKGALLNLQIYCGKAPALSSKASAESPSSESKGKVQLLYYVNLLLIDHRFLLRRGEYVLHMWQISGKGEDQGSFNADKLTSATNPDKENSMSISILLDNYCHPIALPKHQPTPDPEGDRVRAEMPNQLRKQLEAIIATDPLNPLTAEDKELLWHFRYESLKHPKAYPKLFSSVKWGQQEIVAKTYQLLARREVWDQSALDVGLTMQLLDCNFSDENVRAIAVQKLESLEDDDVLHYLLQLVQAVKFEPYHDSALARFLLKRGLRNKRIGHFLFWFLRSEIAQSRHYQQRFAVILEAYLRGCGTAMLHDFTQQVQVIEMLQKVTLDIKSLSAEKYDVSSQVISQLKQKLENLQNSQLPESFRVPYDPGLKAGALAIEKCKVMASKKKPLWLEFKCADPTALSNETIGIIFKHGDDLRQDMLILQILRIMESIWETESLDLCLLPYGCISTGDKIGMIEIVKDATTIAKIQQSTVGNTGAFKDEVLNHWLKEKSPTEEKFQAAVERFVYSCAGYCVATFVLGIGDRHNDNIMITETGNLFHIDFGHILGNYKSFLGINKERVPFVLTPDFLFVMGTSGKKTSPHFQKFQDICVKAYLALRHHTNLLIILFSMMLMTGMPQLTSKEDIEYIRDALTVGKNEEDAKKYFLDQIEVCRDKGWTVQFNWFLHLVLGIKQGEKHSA
UniProt P27986, whole entry partner: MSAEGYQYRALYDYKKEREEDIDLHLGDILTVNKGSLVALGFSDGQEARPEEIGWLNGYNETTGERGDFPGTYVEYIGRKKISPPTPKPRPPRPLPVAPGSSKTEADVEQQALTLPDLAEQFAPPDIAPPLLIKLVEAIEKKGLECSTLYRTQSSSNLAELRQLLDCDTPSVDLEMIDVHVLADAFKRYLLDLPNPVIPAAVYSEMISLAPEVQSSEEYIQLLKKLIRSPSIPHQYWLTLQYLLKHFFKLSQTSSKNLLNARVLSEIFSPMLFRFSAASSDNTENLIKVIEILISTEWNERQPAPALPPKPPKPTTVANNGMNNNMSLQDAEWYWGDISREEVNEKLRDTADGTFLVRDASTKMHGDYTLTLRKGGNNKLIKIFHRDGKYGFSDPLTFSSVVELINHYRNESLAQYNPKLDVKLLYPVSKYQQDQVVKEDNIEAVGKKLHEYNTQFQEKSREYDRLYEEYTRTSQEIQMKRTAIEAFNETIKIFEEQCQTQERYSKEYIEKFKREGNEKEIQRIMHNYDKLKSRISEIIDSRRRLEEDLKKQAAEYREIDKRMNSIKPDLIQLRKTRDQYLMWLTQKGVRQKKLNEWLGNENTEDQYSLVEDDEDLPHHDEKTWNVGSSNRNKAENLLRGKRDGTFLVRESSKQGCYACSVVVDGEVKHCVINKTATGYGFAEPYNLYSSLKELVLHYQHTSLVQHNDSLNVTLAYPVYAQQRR

Legend:
Assay in all cases: PI3K enzyme inhibitory activity in the cell free assay (ADP-Glo Kinase Assay)
Type in all cases: biochemical
[1] = target: PI3Kβ (Homo sapiens, UniProt P42338); settings: read-out: PI3K beta inhibition; human recombinant PI3Kβ, ATP 100 μM; tested form: 2HCl
[2] = target: PI3Kδ (Homo sapiens, UniProt O00329); settings: read-out: PI3K delta inhibition; human recombinant PI3Kδ, ATP 80 μM; tested form: 2HCl
[3] = target: PI3Kα (Homo sapiens, UniProt P42336); settings: read-out: PI3K alpha inhibition; human recombinant PI3Kα, ATP 50 μM; tested form: 2HCl
[4] = target: PI3Kγ (Homo sapiens, UniProt P48736); settings: read-out: PI3K gamma inhibition; human recombinant PI3Kγ, ATP 30 μM; tested form: 2HCl

`CC(C)N1CCC(N2CC=C(c3c(C(C)n4nc(-c5cc(O)cc(F)c5)c5c(N)ncnc54)oc(=O)c4ccccc34)CC2)CC1` (stereo not shown) showed an IC50 [1] of 0.01 to 1 µM, an IC50 [2] of less than 0.01 µM and an IC50 [3] greater than 1 µM. It also gave an IC50 [4] greater than 1 µM.

Structures were worked out from names or drawings and are uncertain.
